From paper PMC12730105, “The Interaction Between PGD2 and G6PD6 Is Involved in Aromatic Amino Acid Synthesis” (Biology, 2025)
No constants are given. Whether binding was seen depends on the method and setting. Binding seen in cells or lysates may run through a third protein. Some results given as binding are weak or reduced against the parent protein; the word gives no strength. Sequences can lack the tags named with a protein.

Assays:
[1] = target: T1, glucose-6-phosphate dehydrogenase 6 (G6PD6), full length, split-YFP fusion G6PD6-CYFP (Arabidopsis thaliana) (UniProt Q9FJI5); experiment: split reporter; BiFC with split YFP (pCNHP-CYFP and pCNHP-NYFP fusions), transient expression in N. benthamiana leaves by Agrobacterium infiltration, confocal microscopy 3 days after infiltration
T1 sequence: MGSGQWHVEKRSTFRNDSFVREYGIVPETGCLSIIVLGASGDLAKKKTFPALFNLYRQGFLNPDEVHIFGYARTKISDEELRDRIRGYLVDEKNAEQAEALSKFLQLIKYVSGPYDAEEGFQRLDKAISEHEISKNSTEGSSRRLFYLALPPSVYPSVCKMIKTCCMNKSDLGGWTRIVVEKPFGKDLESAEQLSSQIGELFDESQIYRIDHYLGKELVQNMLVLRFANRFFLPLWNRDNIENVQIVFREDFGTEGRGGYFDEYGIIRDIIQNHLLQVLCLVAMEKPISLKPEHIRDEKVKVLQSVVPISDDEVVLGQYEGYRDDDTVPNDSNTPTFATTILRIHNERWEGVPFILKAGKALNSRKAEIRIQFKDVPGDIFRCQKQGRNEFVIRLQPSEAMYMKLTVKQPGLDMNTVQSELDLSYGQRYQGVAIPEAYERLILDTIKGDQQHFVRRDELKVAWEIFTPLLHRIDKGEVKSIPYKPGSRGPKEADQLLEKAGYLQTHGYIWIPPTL

[2] = target: T2, G6PD6-GFP (35S::G6PD6-GFP) (Arabidopsis thaliana) (UniProt Q9FJI5); experiment: co-IP; 35S::PGD2-HA and 35S::G6PD6-GFP co-infiltrated in N. benthamiana leaves; extracts (50 mM Tris-HCl pH 7.5, 150 mM NaCl, 5 mM EDTA, 0.1% Triton X-100, 0.2% NP-40) incubated with GFP-nanobody magnetic beads at 4 °C for 3 h; blots with anti-HA and anti-GFP
T2 sequence: T1 sequence

B1: 6-phosphogluconate dehydrogenase 2 (PGD2), full length, split-YFP fusion PGD2-NYFP (enzyme, UniProt Q9FWA3 1-486)
chain: MAVQPTRIGLAGLAVMGQNLALNIAEKGFPISVYNRTTSKVDETVERAKKEGNLPLYGFHDPESFVKSIQKPRVIIMLVKAGSPVDQTIKTLSAYLEKGDCIVDGGNEWYENTERREKAVAENGFLYLGMGVSGGEEGARNGPSMMPGGSYEAYKNIEDIVLKVAAQVRDSGPCVTYIGKGGSGNFVKMVHNGIEYGDMQLIAEAYDVLKSVGKLSNEELHSVFSDWNKGELESFLVEITADIFGIKDDKGDGHLVDKVLDKTGMKGTGKWTVQQAAELSVPAPTIESSLDARFLSGLKDERVQAAKVFKAGGFGDILTDQKVDKKQLVDDVRKALYASKICSYAQGMNLIRAKSIEKGWGLKLGELARIWKGGCIIRAIFLDRIKQAYDRNAELANLLVDPEFAKEIIERQSAWRRVVCLAINSGISTPGMSASLAYFDSYRRERLPANLVQAQRDYFGAHTYERTDVEGSFHTEWFKIARQSKI
- binding [1]: binds

B2: PGD2-HA (35S::PGD2-HA) (enzyme, UniProt Q9FWA3 1-486)
chain: B1 chain
- binding [2]: binds

B3: truncated PGD2 (sPGD2; lacking the N-terminal 15 amino acids), BiFC fusion (domain or fragment, UniProt Q9FWA3 16-486)
chain: MGQNLALNIAEKGFPISVYNRTTSKVDETVERAKKEGNLPLYGFHDPESFVKSIQKPRVIIMLVKAGSPVDQTIKTLSAYLEKGDCIVDGGNEWYENTERREKAVAENGFLYLGMGVSGGEEGARNGPSMMPGGSYEAYKNIEDIVLKVAAQVRDSGPCVTYIGKGGSGNFVKMVHNGIEYGDMQLIAEAYDVLKSVGKLSNEELHSVFSDWNKGELESFLVEITADIFGIKDDKGDGHLVDKVLDKTGMKGTGKWTVQQAAELSVPAPTIESSLDARFLSGLKDERVQAAKVFKAGGFGDILTDQKVDKKQLVDDVRKALYASKICSYAQGMNLIRAKSIEKGWGLKLGELARIWKGGCIIRAIFLDRIKQAYDRNAELANLLVDPEFAKEIIERQSAWRRVVCLAINSGISTPGMSASLAYFDSYRRERLPANLVQAQRDYFGAHTYERTDVEGSFHTEWFKIARQSKI
- binding [1]: binds
